The target of test [1] is T1, TMED7-FLAG (UniProt Q9Y3B3).
T1 sequence: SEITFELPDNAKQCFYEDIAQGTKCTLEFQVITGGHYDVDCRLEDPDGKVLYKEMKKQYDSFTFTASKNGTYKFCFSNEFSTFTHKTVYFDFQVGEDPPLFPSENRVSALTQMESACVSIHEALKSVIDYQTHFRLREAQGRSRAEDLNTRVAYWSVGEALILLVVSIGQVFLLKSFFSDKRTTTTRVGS
Description: proximity ligation.

Protein sequences, listed by entry. Tags and fused reporters are not part of them. Lines headed by an entry give the natural chain unless they say otherwise; changes in a name come on top. Residues count along the entry.
UniProt O15455, residues 24-904: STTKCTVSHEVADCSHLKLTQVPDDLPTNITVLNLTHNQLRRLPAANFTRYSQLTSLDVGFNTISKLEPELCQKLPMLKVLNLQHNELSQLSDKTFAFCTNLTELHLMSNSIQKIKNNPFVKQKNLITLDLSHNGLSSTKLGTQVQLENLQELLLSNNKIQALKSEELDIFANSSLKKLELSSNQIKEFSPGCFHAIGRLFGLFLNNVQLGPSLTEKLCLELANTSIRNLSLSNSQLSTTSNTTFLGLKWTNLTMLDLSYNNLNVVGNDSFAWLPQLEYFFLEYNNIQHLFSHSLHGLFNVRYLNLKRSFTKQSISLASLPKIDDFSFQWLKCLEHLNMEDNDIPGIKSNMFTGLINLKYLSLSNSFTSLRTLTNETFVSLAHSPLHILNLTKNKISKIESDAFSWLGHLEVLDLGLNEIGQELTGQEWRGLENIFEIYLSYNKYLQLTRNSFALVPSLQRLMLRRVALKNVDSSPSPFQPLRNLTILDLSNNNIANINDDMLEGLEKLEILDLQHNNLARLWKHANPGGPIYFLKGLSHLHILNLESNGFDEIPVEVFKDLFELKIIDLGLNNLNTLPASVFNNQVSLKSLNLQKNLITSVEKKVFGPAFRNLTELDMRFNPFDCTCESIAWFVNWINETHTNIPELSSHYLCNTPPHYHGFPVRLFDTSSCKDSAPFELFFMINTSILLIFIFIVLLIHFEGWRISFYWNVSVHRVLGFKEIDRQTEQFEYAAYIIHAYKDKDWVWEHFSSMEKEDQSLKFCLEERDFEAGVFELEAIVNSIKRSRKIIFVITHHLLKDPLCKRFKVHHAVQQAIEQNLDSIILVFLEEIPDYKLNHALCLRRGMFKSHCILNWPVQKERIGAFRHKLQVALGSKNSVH
UniProt O60603: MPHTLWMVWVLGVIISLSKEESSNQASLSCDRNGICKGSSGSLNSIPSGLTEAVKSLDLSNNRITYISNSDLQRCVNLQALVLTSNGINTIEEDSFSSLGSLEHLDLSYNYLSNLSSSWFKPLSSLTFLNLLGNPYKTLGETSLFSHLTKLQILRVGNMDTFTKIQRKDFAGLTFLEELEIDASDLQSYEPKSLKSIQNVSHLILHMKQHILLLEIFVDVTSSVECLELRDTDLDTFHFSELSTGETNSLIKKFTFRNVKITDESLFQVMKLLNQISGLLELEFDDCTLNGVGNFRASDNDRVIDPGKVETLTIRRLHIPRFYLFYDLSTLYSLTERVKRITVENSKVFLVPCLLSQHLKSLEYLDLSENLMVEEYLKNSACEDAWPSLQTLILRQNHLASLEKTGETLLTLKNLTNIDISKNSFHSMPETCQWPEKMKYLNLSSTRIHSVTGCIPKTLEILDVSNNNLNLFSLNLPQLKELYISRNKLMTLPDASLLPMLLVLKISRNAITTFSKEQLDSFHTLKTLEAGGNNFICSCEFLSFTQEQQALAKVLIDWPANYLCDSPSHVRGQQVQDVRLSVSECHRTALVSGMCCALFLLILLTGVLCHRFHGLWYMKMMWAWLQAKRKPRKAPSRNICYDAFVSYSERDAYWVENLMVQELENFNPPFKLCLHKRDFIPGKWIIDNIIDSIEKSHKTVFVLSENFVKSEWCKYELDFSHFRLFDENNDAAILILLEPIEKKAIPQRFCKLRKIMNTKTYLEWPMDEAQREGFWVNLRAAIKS
UniProt O00206, residues 24-839: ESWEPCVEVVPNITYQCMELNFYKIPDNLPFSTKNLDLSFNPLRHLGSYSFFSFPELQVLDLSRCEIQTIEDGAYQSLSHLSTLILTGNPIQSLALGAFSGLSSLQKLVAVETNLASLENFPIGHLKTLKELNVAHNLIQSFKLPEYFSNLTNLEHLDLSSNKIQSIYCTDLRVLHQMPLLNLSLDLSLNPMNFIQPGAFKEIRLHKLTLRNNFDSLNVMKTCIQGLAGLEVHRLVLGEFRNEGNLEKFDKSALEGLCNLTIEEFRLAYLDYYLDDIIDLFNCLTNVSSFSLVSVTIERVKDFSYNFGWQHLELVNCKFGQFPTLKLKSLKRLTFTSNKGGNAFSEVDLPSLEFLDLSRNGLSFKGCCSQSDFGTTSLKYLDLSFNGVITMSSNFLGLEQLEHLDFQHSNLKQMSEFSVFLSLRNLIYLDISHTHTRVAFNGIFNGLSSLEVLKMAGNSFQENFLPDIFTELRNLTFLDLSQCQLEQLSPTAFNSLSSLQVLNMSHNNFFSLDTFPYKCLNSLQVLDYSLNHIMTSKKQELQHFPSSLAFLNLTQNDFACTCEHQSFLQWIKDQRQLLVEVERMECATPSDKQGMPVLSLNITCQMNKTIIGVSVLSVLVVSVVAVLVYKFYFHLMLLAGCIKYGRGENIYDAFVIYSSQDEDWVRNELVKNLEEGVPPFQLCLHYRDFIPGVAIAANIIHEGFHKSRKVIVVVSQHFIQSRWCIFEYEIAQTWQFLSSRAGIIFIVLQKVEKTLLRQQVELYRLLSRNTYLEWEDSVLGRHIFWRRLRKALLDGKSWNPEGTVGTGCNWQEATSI
UniProt O60602, residues 21-858: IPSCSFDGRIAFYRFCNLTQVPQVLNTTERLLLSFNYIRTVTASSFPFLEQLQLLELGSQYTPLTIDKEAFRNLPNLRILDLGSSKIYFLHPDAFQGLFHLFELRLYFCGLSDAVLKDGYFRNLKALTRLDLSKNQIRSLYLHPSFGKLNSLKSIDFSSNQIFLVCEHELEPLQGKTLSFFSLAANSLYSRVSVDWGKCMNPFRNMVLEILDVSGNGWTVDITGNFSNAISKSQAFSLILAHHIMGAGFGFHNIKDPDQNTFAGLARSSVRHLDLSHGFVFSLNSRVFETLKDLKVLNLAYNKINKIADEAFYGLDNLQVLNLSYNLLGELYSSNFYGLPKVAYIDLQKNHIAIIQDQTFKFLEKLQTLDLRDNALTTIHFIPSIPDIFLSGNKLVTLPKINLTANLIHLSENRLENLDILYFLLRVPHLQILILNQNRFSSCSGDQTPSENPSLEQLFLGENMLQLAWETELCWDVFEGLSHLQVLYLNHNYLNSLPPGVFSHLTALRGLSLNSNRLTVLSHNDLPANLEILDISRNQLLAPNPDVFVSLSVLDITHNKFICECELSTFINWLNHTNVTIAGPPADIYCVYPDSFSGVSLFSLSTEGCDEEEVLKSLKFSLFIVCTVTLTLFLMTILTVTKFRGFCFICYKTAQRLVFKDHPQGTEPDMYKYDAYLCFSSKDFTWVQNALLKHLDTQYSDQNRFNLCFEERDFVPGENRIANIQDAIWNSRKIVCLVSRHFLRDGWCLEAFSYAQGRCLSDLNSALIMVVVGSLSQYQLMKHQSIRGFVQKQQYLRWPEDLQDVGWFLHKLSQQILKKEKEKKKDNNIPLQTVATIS
UniProt Q15363, residues 21-201: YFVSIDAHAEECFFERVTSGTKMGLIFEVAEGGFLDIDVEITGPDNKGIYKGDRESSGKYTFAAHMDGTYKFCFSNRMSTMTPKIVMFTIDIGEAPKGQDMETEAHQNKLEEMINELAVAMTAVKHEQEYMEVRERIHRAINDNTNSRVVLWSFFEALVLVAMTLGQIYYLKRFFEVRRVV

In test [2] the target is T1, TMED7-FLAG. As to the kind of experiment: co-IP.
Test [3] concerns the target TLR3 (human) (UniProt O15455). Description: proximity ligation.
The target in test [4] is TLR2 (human) (UniProt O60603). Description: proximity ligation.
For test [5], the target named is TLR4 (UniProt O00206). Description: proximity ligation.
The target in test [6] is TLR3 (human) (UniProt O15455). As to the kind of experiment: co-IP.
Test [7] addresses TLR2 (human) (UniProt O60603). As to the kind of experiment: co-IP.
Test [8] deals with TLR4 (UniProt O00206). As to the kind of experiment: co-IP.

No constants are given. Whether binding was seen depends on the method and setting. Binding seen in cells or lysates may run through a third protein. Some results given as binding are weak or reduced against the parent protein; the word gives no strength. For some of these results: Tags and fused reporters may be left off the sequences shown.

Take “TLR2 (from UniProt O60603 21-784) (receptor)”: the binding result in test [1] and in test [2] was “binds” each time.

In the case of “TLR3 (from UniProt O15455 24-904) (receptor)”, the binding entry in test [1] and in test [2] was “no binding” throughout.

On to “TLR4 (from UniProt O00206 24-839) (receptor)”, for which the binding result in test [1] and in test [2] was “binds” in each case.

Take “TLR5 (from UniProt O60602 21-858) (receptor)”: the binding result in test [1] is “binds”.

Turning to TMED2-HA (from UniProt Q15363 21-201), the binding entry in test [3], in test [4], in test [5], in test [6], in test [7] and in test [8] was “binds” each time.

Values taken from publication doi:10.1101/2022.10.10.511598.
